For one substance, binding results are on record in PMC5461520.

By UniProt entry, the sequences of proteins in these tests, tags left out. Residues count along the entry.
UniProt P18510, residues 26-177: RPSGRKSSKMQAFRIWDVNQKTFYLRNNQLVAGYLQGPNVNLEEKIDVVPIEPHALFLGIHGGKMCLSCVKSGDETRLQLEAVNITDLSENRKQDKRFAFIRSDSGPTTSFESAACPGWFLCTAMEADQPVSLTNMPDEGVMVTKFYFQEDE

The target of the experiment is T1, IL-18 receptor alpha unit (human (endogenous in KG-1 and healthy control monocytes)) (UniProt Q13478).
T1 sequence: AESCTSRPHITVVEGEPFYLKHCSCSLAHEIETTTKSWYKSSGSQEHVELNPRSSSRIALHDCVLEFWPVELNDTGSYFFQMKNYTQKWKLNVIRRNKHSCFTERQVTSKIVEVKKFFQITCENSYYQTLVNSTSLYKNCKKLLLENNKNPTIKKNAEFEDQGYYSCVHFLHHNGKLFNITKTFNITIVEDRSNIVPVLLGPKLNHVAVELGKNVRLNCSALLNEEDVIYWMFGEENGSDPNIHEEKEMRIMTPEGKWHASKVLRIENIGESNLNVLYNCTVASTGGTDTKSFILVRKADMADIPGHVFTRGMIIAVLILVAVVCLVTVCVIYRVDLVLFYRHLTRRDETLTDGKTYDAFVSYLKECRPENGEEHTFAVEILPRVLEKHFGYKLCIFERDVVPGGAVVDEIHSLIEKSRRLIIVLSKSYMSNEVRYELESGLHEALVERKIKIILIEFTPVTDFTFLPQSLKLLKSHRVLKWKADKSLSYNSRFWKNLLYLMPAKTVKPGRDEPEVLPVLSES
The experiment in a line: co-IP; IL-18 sensitive myelomonocytic cell line (KG-1) and healthy control monocytes; western blotting and immunoprecipitation; no further conditions given; only the binder purified. Background: Immunoblotting shows a protein as a band on a membrane.

Results are given in words; binding and its absence hold for the method and conditions named. Binding seen in cells or lysates may run through a third protein. Some entries that bind do so weakly or less than the wild type.

On to “recombinant IL-1 receptor antagonist (rIL-1RA) (from UniProt P18510 26-177) (ligand)”, for which the binding entry is reported as “binds”.
